Data on 13 sequences can be found in patent US20030124590.

Chains of the proteins cited; added tags and fusions are not shown. Lines headed by an entry give the natural chain unless they say otherwise; changes in a name come on top.
UniProt Q8VIP2: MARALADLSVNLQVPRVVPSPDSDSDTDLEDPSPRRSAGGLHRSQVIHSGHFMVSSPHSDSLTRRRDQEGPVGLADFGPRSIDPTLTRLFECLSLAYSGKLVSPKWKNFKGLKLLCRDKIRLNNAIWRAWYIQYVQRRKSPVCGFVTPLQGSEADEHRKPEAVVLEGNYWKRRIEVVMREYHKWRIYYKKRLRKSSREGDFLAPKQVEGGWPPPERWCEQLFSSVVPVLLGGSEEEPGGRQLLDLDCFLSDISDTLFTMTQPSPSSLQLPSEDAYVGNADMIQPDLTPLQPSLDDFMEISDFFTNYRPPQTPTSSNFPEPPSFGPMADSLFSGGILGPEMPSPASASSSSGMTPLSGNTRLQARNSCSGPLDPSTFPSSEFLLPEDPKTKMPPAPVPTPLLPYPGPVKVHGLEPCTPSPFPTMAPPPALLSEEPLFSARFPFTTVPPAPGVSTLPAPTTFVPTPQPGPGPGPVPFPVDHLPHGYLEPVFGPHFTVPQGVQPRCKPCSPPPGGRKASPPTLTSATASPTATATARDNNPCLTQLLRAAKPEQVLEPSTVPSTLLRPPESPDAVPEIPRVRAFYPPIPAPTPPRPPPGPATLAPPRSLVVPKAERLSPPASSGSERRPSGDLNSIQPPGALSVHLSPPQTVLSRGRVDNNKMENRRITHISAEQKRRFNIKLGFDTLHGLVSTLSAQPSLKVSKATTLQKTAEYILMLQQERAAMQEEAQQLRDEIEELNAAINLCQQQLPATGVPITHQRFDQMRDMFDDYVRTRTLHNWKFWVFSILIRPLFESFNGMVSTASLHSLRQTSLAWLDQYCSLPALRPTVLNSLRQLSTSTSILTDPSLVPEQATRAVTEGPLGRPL

Results from cells or extracts need not show a direct contact. For some assays here: Weaker means in comparison with the reference protein, sequence or condition of that experiment. For some assays here: For at least one entry, the source does not settle the construct or the ends of the probe.

Data set [1] addresses ChREBP (WBSCR14), endogenous in liver nuclear extract (Rattus norvegicus) (UniProt Q8VIP2). Nature of the data set: EMSA. As to conditions: protein in an extract, label: 32P. For orientation: A gel shift assay detects complexes by their altered migration in electrophoresis.
Data set [2] deals with USF (upstream stimulatory factor) (Rattus norvegicus). Nature of the data set: EMSA. As to conditions: USF complex identified by antibody supershift; protein in an extract; label: 32P.
Where [3] appears, read: complex formation significantly impeded, variant of LPK ChRE WT.

As for “AGTTCTCACGTGGTGGCCCTGTGCTTGG (double strand) [S14]”, in data set [1] (protein source per Example 2), the binding result is reported as “binds”.

For the sequence “CAAATGCCATGTGAAAACCCATAGCCTG (double strand)”, the binding result in data set [1] (protein source per Example 2) is “binds”.

Take “CTTCCTGCATGTGCCACAGGCGTGTCACCCTC (double strand) [FAS]”: in data set [1] (protein source per Example 2), the binding result is “binds”. Regarding “GACCTGTCCCTGCTCACAGCTGGGGGCAAATGTCTCCAGGAGAGCAAAGCC (double strand) [InsZ]”, the binding result in data set [1] (protein source per Example 2) is listed as “binds”. For the sequence “GATCTGATGGGGGGCGGGGAGGAGCCCGGGATC (double strand) [ACL]”, the binding result in data set [1] (protein source per Example 2) is on record as “binds”. For “GGGCGAACGGGGCACTCCCGTTGTTCC (double strand) [LPK ChRE M1]”, the binding result in data set [1] (setting [3]) is recorded as “binds more weakly”. In the case of “GGGCGCAAGGGGCACTCCCTTGGTTCC (double strand) [LPK ChRE M3]”, the binding result in data set [1] (setting [3]) is reported as “binds more weakly”. For “GGGCGCACGGGGCACTCCCGTGGTTC (double strand) [L-PK ChRE (Table 4)]”, in data set [1] (protein source per Example 2 (nuclear extract)), the binding result is given as “binds”. Take “GGGCGCACGGGGCACTCCCGTGGTTCC (double strand) [LPK ChRE WT]”: the binding result is “binds” in data set [1] (liver nuclear extract, enriched 2-3 fold by high carbohydrate diet) and “binds” in data set [2]. Regarding “GGGCGCACGGTGCACTACCGTGGTTCC (double strand) [LPK ChRE M6]”, in data set [1] (setting [3]), the binding result was “binds more weakly”. As to “GGGCGCACGTGGCACTCACGTGGTTCC (double strand) [LPK ChRE M5]”, the binding result in data set [1] (perfect palindromic E-boxes, enhanced complex vs WT, variant of LPK ChRE WT) is on record as “binds”. For the sequence “GGGCGCACTGGGCACTCCAGTGGTTCC (double strand) [LPK ChRE M4]”, the binding result in data set [1] (setting [3]) is “binds more weakly”. For “GGGCGCCCGGGGCACTCCCGGGGTTCC (double strand) [LPK ChRE M2]”, in data set [1] (setting [3]), the binding result is “binds more weakly”.
